According to US12174198B2, “Methods of characterizing condensate-associated characteristics of compounds and uses thereof” (Dewpoint Therapeutics, Inc., priority 2019, dated 2024):
Some entries share one result that the patent states for a list of compounds.

Columns and labels:
[1] = target: T1, FUS-SNAP condensates (Homo sapiens, UniProt P35637); test: Fluorescence imaging of dye partitioning in FUS-SNAP condensates (I-in, I-out); format: physicochemical; details: average of two days, 10 μM dye, listed as #16
T1 sequence (P35637 1-526): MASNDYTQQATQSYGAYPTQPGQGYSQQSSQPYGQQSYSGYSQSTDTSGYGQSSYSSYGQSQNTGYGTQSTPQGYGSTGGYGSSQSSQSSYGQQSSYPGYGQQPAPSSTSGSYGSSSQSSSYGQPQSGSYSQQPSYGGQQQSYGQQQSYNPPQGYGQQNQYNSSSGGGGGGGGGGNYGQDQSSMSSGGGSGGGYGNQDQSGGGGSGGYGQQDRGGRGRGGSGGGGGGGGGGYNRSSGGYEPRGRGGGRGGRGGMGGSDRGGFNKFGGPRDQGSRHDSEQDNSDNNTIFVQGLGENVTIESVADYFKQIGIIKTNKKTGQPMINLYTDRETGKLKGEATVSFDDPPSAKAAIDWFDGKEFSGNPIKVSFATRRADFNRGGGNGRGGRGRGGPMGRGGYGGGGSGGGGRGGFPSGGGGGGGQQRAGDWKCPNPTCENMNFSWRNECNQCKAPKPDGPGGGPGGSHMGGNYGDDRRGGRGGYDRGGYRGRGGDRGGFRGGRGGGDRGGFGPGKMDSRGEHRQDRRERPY
Description: All dye-stocks were stored as 1 mM solutions in 100% DMSO. The dyes were dissolved in dilution buffer (DB: 14.7 mM Tris, pH 7.25, 1 mM DTT) to yield 11.765 μM dye in 1.1765 DMSO. 17 μl of dye was distributed in a 384 well non-binding plate (Greiner).
Either SNAP-tagged FUS protein or tag-free PGL-3 protein was thawed at room temperature for at least 10 min, and the buffer was exchanged to partitioning buffer (PB: 50 mM Tris pH 7.25, 500 mM KCl, 5% Glycerol, and 1 mM DTT). The protein was then diluted to 33.3 μM in PB. […]
A spinning disk confocal microscope was used to acquire images of the samples. […] The laser power was set to 20% and the exposure times were adjusted to the fluorescence emission intensity specific for each dye. […] The background signal of protein droplets in the absence of dye was recorded for all applied imaging conditions.
Fluorescence intensity was measured inside one exemplary target condensate (Intensity inside, I-in) per image and in a region next to the exemplary target condensate (Intensity outside, I-out) by hand using the image analysis software Fiji. An example depicting the regions measured is shown FIG. 2A. Three I-in and three I-out values were measured in total for each dye in each experiment and were averaged. The measured I-in and I-out values for FUS-SNAP condensates on one day of experiments are shown in Table 2 and Table 3, respectively. […]

[2] = test system: FUS-SNAP condensates versus PGL-3 condensates; test: Condensate preference: ratio of FUS-SNAP I-in:I-out to PGL-3 I-in:I-out; format: physicochemical; details: average FUS-SNAP I-in:I-out divided by average PGL-3 I-in:I-out; listed as #16
Description: The ratios of the average intensity measured in the target condensates and outside of the target condensates were calculated by dividing I-in by I-out, although dividing I-out by I-in could also have been used. The I-in:I-out ratios determined from the two different days of experiments were then averaged. The average I-in:I-out ratios for FUS-SNAP condensates are shown in FIG. 3 and the average I-in:I-out ratios for PGL-3 condensates are shown in FIG. 4. The standard deviation between the two experiments is represented by the error bars in FIG. 3 and FIG. 4.

Question: With `CCN(CC)c1ccc2c(-c3ccccc3C(=O)O)c3ccc(=[N+](CC)CC)cc-3oc2c1` [Dye 16, Rhodamine B] as the compound, how does the “Ratio of intensity inside:outside FUS-SNAP Condensates Average” value [1] read?
Answer: ≥ 4

Question: What about the “Ratio of FUS-SNAP:PGL-3” value [2] of the same compound?
Answer: ≥ 3
